Measured values reported in PubChem BioAssay AID334 (DTP/NCI, 2004).
The list does not hold the whole screen: it gathers some chemical classes. Other doses and runs of a compound may be missing. T/C is the treated group as % of the vehicle group. Where survival is the endpoint, this PubChem deposit counts one and a half times the control or more as active, and values a quarter to a half above the control carry no call in these data; other NCI protocols may use other cut-offs. Schedules are NCI's codes, taken here to give the interval after Q, in days (D) or hours (H), and the number of doses after X. Some entries show no survivor count and are marked so; the dose need not have been tolerated.

System: CD2F1 mice, intracerebral P388 leukemia, median survival T/C%
Experiment: NCI In Vivo Anticancer Drug Screen. Data for tumor model P388 Leukemia (intracerebral) in CD2F1 (CDF1) mice
Details: T/C endpoint: median survival time, schedule: Q01DX005 (ip), vehicle: suspension in saline, higher T/C = longer survival
Protocol: The antitumor activity of compounds was measured in mice bearing transplantable tumors. Survival or tumor size were measured and the results are expressed as the measurement made in the treated group (T) divided by the measurement made in the vehicle treated control group (C). The tumor model used in this assay is P388 Leukemia (intracerebral) in CD2F1 (CDF1) mice

## CC(=O)OCC12CCC(C)=CC1OC1C(O)C(OC(C)=O)C2(C)C12CO2 (configuration not stated)
dose: 2.0 mg/kg/injection
  T/C: 124 % of control [survivor count not shown]
dose: 4.0 mg/kg/injection
  T/C: 144 % of control [survivor count not shown]
